Results are given in words; binding and its absence hold for the method and conditions named. Some binding calls cover weakened binding; strength is not graded here. One block for each binder: values may come before it.
Experiments:
Test in all cases: two-hybrid; AD (pGAD-C(1)) and BD (pGBD-C(1)) fusions in yeast PJ69-4; dual transformants tested on media lacking leucine, tryptophan and adenine; positive if all tested colonies (4 to 10) grew; both combinations of clones tested whenever possible
AtCPSF30 (Arabidopsis) = molecular target: T1, AtCPSF30 (Arabidopsis) (UniProt A9LNK9)
T1 sequence: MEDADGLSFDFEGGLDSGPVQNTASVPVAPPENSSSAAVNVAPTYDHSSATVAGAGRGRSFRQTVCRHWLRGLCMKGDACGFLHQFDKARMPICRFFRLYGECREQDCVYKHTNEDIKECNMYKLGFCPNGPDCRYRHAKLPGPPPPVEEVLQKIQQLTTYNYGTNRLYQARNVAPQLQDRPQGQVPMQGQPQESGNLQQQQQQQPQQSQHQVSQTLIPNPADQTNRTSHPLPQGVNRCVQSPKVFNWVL

AtPCFS1 (Arabidopsis) = molecular target: T2, AtPCFS1 (Arabidopsis) (UniProt Q9C710)
T2 sequence: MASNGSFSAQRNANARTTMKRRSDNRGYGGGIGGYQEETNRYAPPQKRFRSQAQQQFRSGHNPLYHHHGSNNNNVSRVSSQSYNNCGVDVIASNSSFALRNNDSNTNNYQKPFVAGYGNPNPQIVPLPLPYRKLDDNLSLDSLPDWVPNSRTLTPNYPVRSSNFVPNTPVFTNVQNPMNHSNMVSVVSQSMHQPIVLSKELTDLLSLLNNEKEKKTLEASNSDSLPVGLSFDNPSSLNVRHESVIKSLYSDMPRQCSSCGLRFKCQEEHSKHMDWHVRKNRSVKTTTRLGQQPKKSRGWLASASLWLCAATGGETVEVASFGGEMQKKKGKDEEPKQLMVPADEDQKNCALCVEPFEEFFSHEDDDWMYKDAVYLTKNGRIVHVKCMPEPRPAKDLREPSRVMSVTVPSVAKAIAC

AtPCFS4 (Arabidopsis) = molecular target: T3, AtPCFS4 (Arabidopsis) (UniProt Q0WPF2)
T3 sequence: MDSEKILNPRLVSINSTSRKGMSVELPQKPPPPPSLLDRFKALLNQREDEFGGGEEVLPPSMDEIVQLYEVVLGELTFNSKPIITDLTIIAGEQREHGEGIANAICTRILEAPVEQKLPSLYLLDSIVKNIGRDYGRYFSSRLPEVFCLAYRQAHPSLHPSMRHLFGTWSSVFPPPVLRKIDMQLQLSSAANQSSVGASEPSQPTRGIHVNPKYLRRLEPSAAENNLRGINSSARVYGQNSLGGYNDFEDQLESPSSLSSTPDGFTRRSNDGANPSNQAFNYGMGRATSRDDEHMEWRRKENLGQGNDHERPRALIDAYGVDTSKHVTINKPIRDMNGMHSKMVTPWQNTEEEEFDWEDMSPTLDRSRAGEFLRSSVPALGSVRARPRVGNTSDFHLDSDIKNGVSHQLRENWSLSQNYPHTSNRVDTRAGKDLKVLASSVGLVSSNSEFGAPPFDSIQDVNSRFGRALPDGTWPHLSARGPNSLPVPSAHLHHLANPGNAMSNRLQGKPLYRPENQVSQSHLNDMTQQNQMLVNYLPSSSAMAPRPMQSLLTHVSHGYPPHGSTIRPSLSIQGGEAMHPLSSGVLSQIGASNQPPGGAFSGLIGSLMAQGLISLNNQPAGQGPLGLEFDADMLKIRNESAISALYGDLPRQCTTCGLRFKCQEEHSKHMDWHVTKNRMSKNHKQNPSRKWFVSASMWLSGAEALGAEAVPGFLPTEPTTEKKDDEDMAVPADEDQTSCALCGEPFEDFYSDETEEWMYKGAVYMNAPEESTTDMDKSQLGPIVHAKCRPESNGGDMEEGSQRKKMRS

AtPCFS5 (Arabidopsis) = molecular target: T4, AtPCFS5 (Arabidopsis) (UniProt Q9FIX8)
T4 sequence: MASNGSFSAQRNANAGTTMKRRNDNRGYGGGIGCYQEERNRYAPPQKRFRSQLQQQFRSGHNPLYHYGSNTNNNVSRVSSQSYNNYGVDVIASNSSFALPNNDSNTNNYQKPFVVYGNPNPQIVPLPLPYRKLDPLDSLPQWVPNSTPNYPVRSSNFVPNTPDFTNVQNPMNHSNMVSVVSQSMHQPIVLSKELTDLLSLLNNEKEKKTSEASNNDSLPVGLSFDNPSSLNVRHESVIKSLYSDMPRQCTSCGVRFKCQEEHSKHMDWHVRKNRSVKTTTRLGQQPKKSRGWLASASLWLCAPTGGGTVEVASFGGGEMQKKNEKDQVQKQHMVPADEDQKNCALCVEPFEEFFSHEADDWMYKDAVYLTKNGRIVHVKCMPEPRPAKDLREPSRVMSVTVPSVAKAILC

[1] = molecular target: T5, AtCPSF73-II (Arabidopsis) (UniProt Q8GUU3)
T5 sequence: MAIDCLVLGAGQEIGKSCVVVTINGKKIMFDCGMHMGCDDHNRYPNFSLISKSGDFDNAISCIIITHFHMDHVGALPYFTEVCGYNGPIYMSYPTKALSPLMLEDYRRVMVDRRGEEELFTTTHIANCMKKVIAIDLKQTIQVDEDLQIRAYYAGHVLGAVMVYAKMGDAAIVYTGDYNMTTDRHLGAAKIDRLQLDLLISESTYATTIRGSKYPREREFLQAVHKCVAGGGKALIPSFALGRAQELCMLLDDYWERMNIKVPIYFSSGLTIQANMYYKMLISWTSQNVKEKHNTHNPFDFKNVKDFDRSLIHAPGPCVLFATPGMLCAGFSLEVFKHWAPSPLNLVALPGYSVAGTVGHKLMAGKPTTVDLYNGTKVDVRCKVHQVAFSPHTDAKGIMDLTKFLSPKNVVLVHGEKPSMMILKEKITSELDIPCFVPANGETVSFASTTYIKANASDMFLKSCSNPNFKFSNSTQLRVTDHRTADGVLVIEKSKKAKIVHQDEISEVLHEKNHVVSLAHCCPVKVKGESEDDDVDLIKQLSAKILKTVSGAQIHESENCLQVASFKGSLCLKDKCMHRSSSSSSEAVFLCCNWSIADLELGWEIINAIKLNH

AtFIPS5 (Arabidopsis) = molecular target: T6, AtFIPS5 (Arabidopsis) (UniProt F4KDH9)
T6 sequence: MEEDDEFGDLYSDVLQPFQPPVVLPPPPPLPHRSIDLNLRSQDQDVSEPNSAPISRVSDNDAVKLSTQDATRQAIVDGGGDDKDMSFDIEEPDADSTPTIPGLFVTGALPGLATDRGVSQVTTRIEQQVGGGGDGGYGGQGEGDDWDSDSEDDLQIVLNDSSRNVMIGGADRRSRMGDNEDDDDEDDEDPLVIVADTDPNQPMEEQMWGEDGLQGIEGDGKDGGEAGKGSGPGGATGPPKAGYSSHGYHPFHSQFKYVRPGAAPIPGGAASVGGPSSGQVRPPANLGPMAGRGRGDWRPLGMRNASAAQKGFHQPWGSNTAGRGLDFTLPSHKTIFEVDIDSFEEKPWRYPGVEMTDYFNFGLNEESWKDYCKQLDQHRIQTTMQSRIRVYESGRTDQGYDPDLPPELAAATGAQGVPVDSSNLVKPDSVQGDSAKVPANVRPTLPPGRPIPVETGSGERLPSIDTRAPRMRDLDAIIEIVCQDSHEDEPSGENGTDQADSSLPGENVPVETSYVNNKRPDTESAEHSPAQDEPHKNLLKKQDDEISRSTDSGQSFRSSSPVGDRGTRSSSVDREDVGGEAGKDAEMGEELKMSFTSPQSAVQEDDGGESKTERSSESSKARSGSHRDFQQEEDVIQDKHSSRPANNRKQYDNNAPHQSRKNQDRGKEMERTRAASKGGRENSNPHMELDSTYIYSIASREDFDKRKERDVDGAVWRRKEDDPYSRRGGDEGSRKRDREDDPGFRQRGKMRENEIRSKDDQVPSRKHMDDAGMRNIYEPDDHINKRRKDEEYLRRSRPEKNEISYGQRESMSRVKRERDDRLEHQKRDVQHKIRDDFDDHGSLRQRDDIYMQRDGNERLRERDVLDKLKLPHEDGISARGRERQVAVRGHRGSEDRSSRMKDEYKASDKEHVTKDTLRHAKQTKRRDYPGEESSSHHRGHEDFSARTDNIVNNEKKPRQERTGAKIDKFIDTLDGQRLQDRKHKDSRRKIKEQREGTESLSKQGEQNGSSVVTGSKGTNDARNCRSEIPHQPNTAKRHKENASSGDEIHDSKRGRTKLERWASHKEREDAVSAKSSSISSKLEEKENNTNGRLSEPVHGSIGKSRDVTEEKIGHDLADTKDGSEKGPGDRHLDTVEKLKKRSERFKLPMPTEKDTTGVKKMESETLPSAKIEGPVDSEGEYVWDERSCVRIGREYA

B1: AtCLPS3 (protein, UniProt Q9SR06 1-444)
chain: MAYGGPSMNPPALSGAVPGSANLKQVKLERESELRIEVSEEPLRLRVVNGTAEIFGSELPPEIWRTFPPRMKFAVFTWYGATIEMDGVTETDYTADETPMVSYINVHAILDARRRFAKASTSNDPESSQGPRVIVVGPTDSGKSTLTKMLLSWAAKQGWRPTFVDLDVGQGSITIPGSIAAAPIEMPLDPVEGFPLDMALVYYYGHASPNMNVELYKALVKELAQVLEKQFVGNPESRAAGMVINTMGWIEGIGYELLLHAIDTFNASVVLVLGQEKLFSRLKDVLRSKSNVDVVKLHKSGGVVARVKEVRKRSRNFKIQEYFYGLSKELSPYANTSSFSDLQVFRIGGGPQAPKSALPAGSTSVSNPLRVTPVNIDDRDLLHSVLAVSYAEEPDQIISSNVSGFVYVTEVNVQKKKITYLAPSPGTLPSKLLVAGSLAWLESV
binding (AtCPSF30 (Arabidopsis)): binds
binding (AtPCFS1 (Arabidopsis)): binds
binding (AtPCFS4 (Arabidopsis)): binds
binding (AtPCFS5 (Arabidopsis)): binds

B2: AtCPSF73-II (protein, UniProt Q8GUU3 1-613)
chain: T5 sequence
binding [1]: no binding

Now from value to binder:

binding (AtFIPS5 (Arabidopsis)): binds
B3: AtCSTF64 (protein, UniProt Q9M9G6 1-461)
chain: MASSSSQRRCVFVGNIPYDATEEQLREICGEVGPVVSFRLVTDRETGKPKGYGFCEYKDEETALSARRNLQSYEINGRQLRVDFAENDKGTDKTRDQSQGGPGLPSTTTVTESQKQIGGPVDSNMHQPVGLHLATTAASVIAGALGGPQVGSQFTQSNLQVPASDPLALHLAKMSRSQLTEIISSIKLMATQNKEHARQLLVSRPQLLKAVFLAQVMLGIVSPQVLQSPNIVQAPSHMTGSSIQDAQLSGQNLLPPLAQRSQQLSRAPHSQYPVQQSSKQPFSQIPQLVAQPGPSSVNPPPRSQVKVENAPFQRQQVVPASTNIGYSSQNSVPNNAIQPSQVPHQALPNSVMQQGGQTVSLNFGKRINEGPPHQSMNRPSKMMKVEDRRTTSLPGGHVSNSMLPNQAQAPQTHISPDVQSTLLQQVMNLTPEQLRLLTPEQQQEVLKLQQALKQDHMMQPS

binding (AtFIPS5 (Arabidopsis)): binds
B4: AtPABN3 (protein, UniProt Q9LX90 1-217)
chain: MEEEEHEVYGGEIPEVGDTDVPDPDIDMSAADEDAVTELAEMKRRLKEMEEEAAALREMQAKVEKEMGATQDPASMAANQEGKEEVDARSVYVGNVDYACTPEEVQLHFQTCGTVNRVTILMDKFGQPKGFAYVEFVEVEAVQEALQLNESELHGRQLKVSPKRTNVPGMKQYHPGRFNPSMGYRFRRPFVPPYFYSPYGYGKAPRFRRPMRYMPYQ

Reference: paper PMC2391170
